Counter-ions that a name gives are not always drawn. The list shows a part of the results. The calls rarely recur for the same compound in another form.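 In K562 cells expressing nanoluciferase-fused kinases, luminescence was recorded at 4 h intervals between 2 and 18 h, normalized as percent of control with DMSO at 100% and a positive control at 0%. A significant (2 sigma) signal drop marks a time point as decreased. The authors' rule for a hit is not shown and takes in more than the number of time points.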
These compounds were tested against MAPK1 (UniProt P28482) (assay: kinase-Nluc reporter destabilization hit call (1 = scored as downregulated) (binary); higher = compound decreases kinase abundance). Conditions: K562; 2-18 h.

The chains behind the UniProt entries cited, without tags or fusion partners.
UniProt P28482, whole entry: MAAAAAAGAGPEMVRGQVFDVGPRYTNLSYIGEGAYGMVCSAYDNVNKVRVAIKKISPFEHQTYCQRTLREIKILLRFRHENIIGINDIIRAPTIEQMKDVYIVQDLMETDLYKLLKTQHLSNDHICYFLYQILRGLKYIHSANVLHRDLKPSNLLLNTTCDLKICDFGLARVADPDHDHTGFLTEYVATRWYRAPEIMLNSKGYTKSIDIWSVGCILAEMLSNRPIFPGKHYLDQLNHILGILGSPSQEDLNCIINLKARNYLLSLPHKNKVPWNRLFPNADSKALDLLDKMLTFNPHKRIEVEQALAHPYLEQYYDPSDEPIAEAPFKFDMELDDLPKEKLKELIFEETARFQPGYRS

kinase-Nluc reporter destabilization hit call, inactive:
Cn1cc(Nc2nccc(N3C[C@H]4CC[C@@H](C3)N4C(=O)[C@@H]3CC3(F)F)n2)cn1 (10 µM) 0
CC(C)=CC(=O)CCC(=O)N1CCN(Cc2cc3nc(-c4cccc5[nH]ncc45)nc(N4CCOCC4)c3s2)CC1 (10 µM) 0
CN(C)CCN(Cc1ccc(Cl)cc1)c1ccccn1 [Chloropyramine hydrochloride] (10 µM) 0
COc1cc([N+](=O)[O-])ccc1S(=O)(=O)N1C[C@@H](CN2CCN(c3ccccn3)CC2)[C@H](c2cccc(F)c2)C1 (relative stereo) (10 µM) 0
Cc1noc(C)c1-c1ccc(-c2cc(C(N)=O)c(NC(N)=O)s2)c(O[C@H]2CCNC2)c1 (10 µM) 0
CC(C)(C)NC(=O)c1cncn1C1CCN(c2ccc(-c3nnc(C(F)(F)F)o3)cn2)CC1 (10 µM) 0
COc1cccc(-n2c(=O)[nH]c3cc(Cl)n(-c4ccc(-c5cccc(OC)c5O)cc4)c3c2=O)c1 (2.5 µM) 0
O=C(Nc1cccnc1)c1cc(C(=O)c2c(F)cccc2Br)c[nH]1 (10 µM) 0
O=C(Nc1cc(Oc2cc(F)c(NC(=O)C3(C(=O)Nc4ccc(F)cc4)CC3)cc2F)ccn1)C1CC1 [Altiratinib] (10 µM) 0
O=C1NC(=O)C(=Cc2ccc(-c3ccc(F)cc3)o2)S1 (stereo in doubt) (10 µM) 0
O=C(NC(NC(=S)Nc1ccc(F)c([N+](=O)[O-])c1)C(Cl)(Cl)Cl)C(c1ccccc1)c1ccccc1 (stereo unspecified) (10 µM) 0
Nc1ncnc2c1ncn2[C@@H]1O[C@H](CO)C[C@H]1O [Cordycepin] (10 µM) 0
CC(C)(NS(=O)(=O)c1ccc2c(Cl)cnc(N=C(N)N)c2c1)C(=O)O (10 µM) 0
COc1cc2ncnc(Nc3cccc(Cl)c3)c2cc1OC (10 µM) 0
CCOc1ccc(C(=O)Nc2ncc([N+](=O)[O-])s2)cc1 (10 µM) 0
CC(C)CN[C@H]1CS(=O)(=O)C[C@@H]1S(=O)(=O)c1ccc(Cl)cc1 (10 µM) 0
CCn1c(=O)c(-c2ccc(-c3cncs3)cc2Cl)cc2cnc(Nc3ccc(N4CCN(C)CC4)cc3)nc21 (2.5 µM) 0
C[C@]1(O)CCC[C@@H]1n1c(=O)c(C(F)F)cc2cnc(NC3CCN(S(C)(=O)=O)CC3)nc21 (10 µM) 0
COc1c(NC(=O)C(=O)c2ccc(OCCN3CCOCC3)c3ccccc23)cc(C(C)(C)C)cc1NS(C)(=O)=O (2.5 µM) 0
COc1cc(S(C)(=O)=O)ccc1Nc1nc2ccc(-c3ccc(NC(=O)[C@H](C)c4ccc(F)cc4)cc3)cn2n1 [Empesertib] (10 µM) 0
Nc1cc(Nc2ccc(S(N)(=O)=O)cc2)ncn1 (10 µM) 0
O=C(O)c1cc(O)ccc1O [2,5-Dihydroxybenzoic acid] (10 µM) 0
OCCNC1CCCc2c1[nH]c1ccc(-c3ccccc3)cc21 (stereo unspecified) (2.5 µM) 0
CC(C)CC1(O)CCN(C(=O)c2ccc(NS(=O)(=O)c3cccc4nccnc34)cc2)CC1 (10 µM) 0
CNC(=O)c1ccc(-c2cnc3cnc(C(=O)N(C)c4ccc(Cl)cc4)cn23)cc1 (2.5 µM) 0
Cc1cc(Nc2cc(Cl)nc(Oc3ccc([N+](=O)[O-])cc3)n2)n[nH]1 [Autophinib] (2.5 µM) 0
CN1CCN(c2ccc(Nc3ncc4nc(Nc5ccccc5)n([C@@H]5CCN(S(=O)(=O)C6CC6)C5)c4n3)cc2)CC1 (2.5 µM) 0
Cc1c(CN2CCN(S(C)(=O)=O)CC2)sc2c(N3CCOCC3)nc(-c3cnc(N)nc3)nc12 (2.5 µM) 0
O=C(NCCCNc1nc(Nc2cccc(NC(=O)N3CCCC3)c2)ncc1I)c1cccs1 (2.5 µM) 0
O=C(/C=C/c1ccc(O[C@@H]2O[C@H](CO)[C@@H](O)[C@H](O)[C@H]2O[C@@H]2OC[C@](O)(CO)[C@H]2O)cc1)c1ccc(O)cc1O [Isoliquiritin apioside] (10 µM) 0
O=C1NC(=O)/C(=C/c2ccc3c(c2)OC(F)(F)O3)S1 (10 µM) 0

Taken from above (2 entries):
kinase-Nluc reporter destabilization hit call, inactive:
COc1cc(S(C)(=O)=O)ccc1Nc1nc2ccc(-c3ccc(NC(=O)[C@H](C)c4ccc(F)cc4)cc3)cn2n1 [Empesertib] (10 µM) 0
Nc1cc(Nc2ccc(S(N)(=O)=O)cc2)ncn1 (10 µM) 0

Source: the supplement of paper PMC12823440, “Inhibitors supercharge kinase turnover through native proteolytic circuits” (Nature, 2025)
